This note sets out measurements from the supplement of paper PMC12823440, “Inhibitors supercharge kinase turnover through native proteolytic circuits” (Nature, 2025).

Protein sequences, listed by entry. Tags and fused reporters are not part of them.
UniProt Q05397, whole entry, looked up: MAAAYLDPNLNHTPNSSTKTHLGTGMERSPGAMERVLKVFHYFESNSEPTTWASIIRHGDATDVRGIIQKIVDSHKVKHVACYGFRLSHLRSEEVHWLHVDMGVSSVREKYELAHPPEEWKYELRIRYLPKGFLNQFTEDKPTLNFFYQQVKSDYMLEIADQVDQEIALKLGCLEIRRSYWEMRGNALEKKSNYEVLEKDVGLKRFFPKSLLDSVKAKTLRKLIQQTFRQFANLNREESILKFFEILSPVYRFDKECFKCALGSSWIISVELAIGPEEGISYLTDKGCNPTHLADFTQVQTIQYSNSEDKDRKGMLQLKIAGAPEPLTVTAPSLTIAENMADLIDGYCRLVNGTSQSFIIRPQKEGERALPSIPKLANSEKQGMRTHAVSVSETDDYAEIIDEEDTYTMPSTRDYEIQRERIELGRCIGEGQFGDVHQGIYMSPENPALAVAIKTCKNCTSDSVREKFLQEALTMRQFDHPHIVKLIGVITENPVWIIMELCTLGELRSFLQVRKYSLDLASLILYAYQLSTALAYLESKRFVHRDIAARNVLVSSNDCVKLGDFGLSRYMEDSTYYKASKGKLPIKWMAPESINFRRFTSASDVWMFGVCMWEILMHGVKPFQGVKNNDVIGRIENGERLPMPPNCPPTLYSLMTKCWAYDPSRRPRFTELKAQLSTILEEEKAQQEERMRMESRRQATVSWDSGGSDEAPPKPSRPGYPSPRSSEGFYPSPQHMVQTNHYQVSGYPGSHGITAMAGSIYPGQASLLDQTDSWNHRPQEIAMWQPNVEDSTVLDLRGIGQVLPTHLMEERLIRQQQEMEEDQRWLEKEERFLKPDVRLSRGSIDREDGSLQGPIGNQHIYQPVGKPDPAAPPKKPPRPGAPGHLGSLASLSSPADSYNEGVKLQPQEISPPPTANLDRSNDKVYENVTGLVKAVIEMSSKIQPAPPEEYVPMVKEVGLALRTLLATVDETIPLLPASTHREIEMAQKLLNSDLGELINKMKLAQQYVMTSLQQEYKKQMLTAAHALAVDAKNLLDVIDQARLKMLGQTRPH

Each structure is given as a SMILES string. Structures can show the parent of a compound that is named as a salt. The list shows a part of the results. The calls rarely recur for the same compound in another form.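 Kinases were expressed as nanoluciferase fusions in K562 cells and luminescence was read every 4 h between 2 and 18 h as percent of control, DMSO set to 100% and a positive control to 0%. A time point counts as decreased when the signal drops significantly (2 sigma). The hit call is the authors' own, does not follow from the count of time points alone, and its rule is not shown.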

In one test the target is PRKCA (UniProt P17252). Put plainly: number of time points (of 5) at which kinase-Nluc abundance scored as decreased, DMSO-normalised (count); higher = more persistent destabilization. The note with it: K562; 2-18 h.
In the case of `c1ccc(-c2nc(=NCCN3CCOCC3)sn2-c2ccccc2)cc1` [VP3.15 (dihydrobromide)] (10 µM), the “number of time points” value turned out to be 0.
`O=C1NC(=Nc2c(Cl)cccc2Cl)S/C1=C\c1ccc2nccnc2c1` (2.5 µM): the “number of time points” value was found to be 0.
As for `Cc1cc(-c2ccnc(Nc3cnn(C)c3)n2)ccc1CNC(=O)N1CC(OC(C)C)C1` (10 µM), the “number of time points” value came out at 0.
On the same count and under the same terms, then `CN(C)S(=O)(=O)c1ccc2c(c1)/C(=C/c1cc3c([nH]1)CCCC3)C(=O)N2` (2.5 µM), with 3.
Still for that read-out and setting: then `Cc1cnc(NC2CCOCC2)nc1-n1cnc(C(=O)N[C@H](CN)c2cc(F)cc(Cl)c2)c1` (10 µM), with 0; and `N#CC(c1ccnc(OCc2ccc(CN3CCOCC3)cc2)n1)c1nc2ccccc2s1` (stereo not given) [Bentamapimod] (2.5 µM), with 0.
With `Cc1c(-c2ccc(C(N)=O)c3[nH]c4cc(C(C)(C)O)ccc4c23)cccc1-n1cnc2ccccc2c1=O` (2.5 µM), the “number of time points” value was 0.
Still for that read-out and setting: the value for `CN(C)c1nc2c(Br)c(Br)c(Br)c(Br)c2[nH]1` (10 µM) was 0; that for `Nc1ncnc2c1c(-c1ccc(Oc3ccccc3)cc1)nn2C1CCN(CCOCCOCCOc2ccc3c(c2)CN(C2CCC(=O)NC2=O)C3=O)CC1` (stereo not given) (2.5 µM) was 0; that for `O=[N+]([O-])c1ccc(Nc2nc(N3CCOCC3)nc(N3CCOCC3)n2)cc1` (10 µM) was 0.
Same read-out and setting: then `C[C@H](Nc1ncnc2[nH]cnc12)c1cc2ccc(F)cc2nc1-c1ccccn1` (10 µM), with 0.
Still for that read-out and setting: the value for `CCc1cccc(CC)c1NC(=O)N1Cc2[nH]nc(NC(=O)c3ccc(N4CCN(C)CC4)cc3)c2C1` (2.5 µM) was 0.
In the case of `CCc1cncnc1N1CCN(Cc2nc3ccc(C(F)(F)F)cc3[nH]2)CC1` (10 µM), the “number of time points” value was 0.
For `COc1cc(-c2cn[nH]c2)ccc1C(=O)Nc1ccc2c(c1)CCNCC2` (10 µM), the “number of time points” value was 0.
Still for that read-out and setting: then `Cn1cc2cc(C(F)(F)c3nnc4ccc(-c5cnn(C6CC6)c5)nn34)c(F)cc2n1` [Bozitinib] (10 µM), with 0; and `O=Nc1c2[nH]c3ccccc3nc-2c2ccccc12` [IQ-1S (free acid)] (2.5 µM), with 0.
Take `CCN(CC)c1cc2oc(=O)c(-c3nc4ccccc4o3)cc2cc1C` (2.5 µM): the “number of time points” value amounted to 0.
On the same count and under the same terms, the value for `COc1cc(N2CCOCC2)ccc1NC(=O)c1csc(-c2cccnc2)n1` [IRAK inhibitor 6] (10 µM) was 0; that for `CNc1nc(Nc2cn(C(C)(C)C#N)nc2C)ncc1C(F)(F)F` (10 µM) was 0; that for `COc1nn(C)cc1Nc1nccc(-c2c[nH]c3c(NC(=O)[C@@H](C)N4CCN(C)CC4)cccc23)n1` (10 µM) was 0.
Still for that read-out and setting: then `N#Cc1ccnc(Nc2cc(C3CCN(C4COC4)CC3)cc(N3CCC(F)(F)C3)n2)c1` (2.5 µM), with 0; and `Cc1cccc2c3c(ccc12)C(=O)C1=C(OCC1C)C3=O` (stereo not given) [Dihydroisotanshinone I] (2.5 µM), with 0.
Turning to `CNc1nc(Nc2ccc(C(=O)N3CCOCC3)cc2OC)ncc1Cl` (2.5 µM), the “number of time points” value came to 0.
Still for that read-out and setting: the value for `CCN(CC)c1ccc2cc(-c3nc4cc(C)ccc4o3)c(=O)oc2c1` (10 µM) was 0.
The same measure, in the same setting: then `COc1ccccc1C(=O)/C=C/c1ccccc1C(=O)O` (10 µM), with 0; and `CC(=O)N1CCC(c2cc(-c3ccc(NC(=O)c4cccn(-c5ccc(F)cc5)c4=O)cc3F)c3c(N)ncnn23)CC1` (0.5 µM), with 0.
`O[C@@H]1CO[C@H]2[C@@H]1OC[C@H]2Oc1nc2nc(-c3ccc(-c4ccccc4)cc3)c(Cl)cc2[nH]1` (10 µM): the “number of time points” value came out at 0.

The target in the next test is PTK2 (UniProt Q05397). The test is described as above. The note with it: K562; 2-18 h.
Turning to `C[C@@H]1COCCN1c1nc(-c2cnc(N)cc2C(F)F)nc(N2[C@H](C)COC[C@@H]2C)n1` (2.5 µM), the “number of time points” value was found to be 1.
The same measure, in the same setting: then `O=C(O)c1cc(=O)c2c(OCC(O)COc3cccc4oc(C(=O)O)cc(=O)c34)cccc2o1` [Cromolyn (sodium)] (10 µM), with 0; and `CCc1ccc(OCC(=O)Nc2ccc(F)c([N+](=O)[O-])c2)cc1` (10 µM), with 0.
Still for that read-out and setting: the value for `CC(C)S(=O)(=O)c1ccc2nccc(Nc3ccc4scnc4c3)c2c1` (10 µM) was 0.
As for `CN1CC[C@@H](c2c(O)cc(O)c3c(=O)cc(-c4ccc(C(F)(F)F)cc4Cl)oc23)[C@@H]1CO` [Voruciclib (hydrochloride)] (10 µM), the “number of time points” value is 0.
On the same count and under the same terms, then `CC(C)=CC(=O)O[C@H]1Cc2cc3ccc(=O)oc3cc2OC1(C)C` [Decursin] (10 µM), with 0.
For the compound `CC(C)C[C@@H](C(=O)Nc1ccn(C[C@@H](O)CO)n1)N1CC(Oc2ccccc2Cl)=CC1=O` [Dorzagliatin] (10 µM), the “number of time points” value amounted to 0.
Still for that read-out and setting: then `CC(C)N1CCN(c2ccc(Nc3ncc4cc5n(c4n3)C3(CCCCC3)CNC5=O)nc2)CC1` [Lerociclib (dihydrochloride)] (2 µM), with 0.
On the same count and under the same terms, then `CCCCCCCCCCCCCCCCOP(=O)([O-])OCC[N+](C)(C)C` [Miltefosine] (10 µM), with 0; and `COCCNc1cc(NC(=O)N2CCCc3cc(CN4CCN(C)CC4=O)c(C=O)nc32)ncc1C#N` [Roblitinib] (10 µM), with 0.
Still for that read-out and setting: then `Cc1ccc(NC(=O)c2ccc(CN(CCN(C)C)C(=O)c3cccnc3)cc2)cc1Nc1nccc(-c2cccnc2)n1` [PDGFRα kinase inhibitor 1] (10 µM), with 0; and `c1ccc(-c2nc(=NCCN3CCOCC3)sn2-c2ccccc2)cc1` [VP3.15 (dihydrobromide)] (10 µM), with 0; and `O=C1NC(=Nc2c(Cl)cccc2Cl)S/C1=C\c1ccc2nccnc2c1` (2.5 µM), with 0.
As to `Cc1cc(-c2ccnc(Nc3cnn(C)c3)n2)ccc1CNC(=O)N1CC(OC(C)C)C1` (10 µM), the “number of time points” value was found to be 0.
On the same count and under the same terms, then `CN(C)S(=O)(=O)c1ccc2c(c1)/C(=C/c1cc3c([nH]1)CCCC3)C(=O)N2` (2.5 µM), with 2; and `Cc1cnc(NC2CCOCC2)nc1-n1cnc(C(=O)N[C@H](CN)c2cc(F)cc(Cl)c2)c1` (10 µM), with 0.
The same measure, in the same setting: then `N#CC(c1ccnc(OCc2ccc(CN3CCOCC3)cc2)n1)c1nc2ccccc2s1` (stereo not given) [Bentamapimod] (2.5 µM), with 0; and `Cc1c(-c2ccc(C(N)=O)c3[nH]c4cc(C(C)(C)O)ccc4c23)cccc1-n1cnc2ccccc2c1=O` (2.5 µM), with 0.
On the same count and under the same terms, then `CN(C)c1nc2c(Br)c(Br)c(Br)c(Br)c2[nH]1` (10 µM), with 0.
Consider `Nc1ncnc2c1c(-c1ccc(Oc3ccccc3)cc1)nn2C1CCN(CCOCCOCCOc2ccc3c(c2)CN(C2CCC(=O)NC2=O)C3=O)CC1` (stereo not given) (2.5 µM), for which the “number of time points” value came out at 0.
The same measure, in the same setting: the value for `O=[N+]([O-])c1ccc(Nc2nc(N3CCOCC3)nc(N3CCOCC3)n2)cc1` (10 µM) was 0; that for `C[C@H](Nc1ncnc2[nH]cnc12)c1cc2ccc(F)cc2nc1-c1ccccn1` (10 µM) was 0; that for `CCc1cccc(CC)c1NC(=O)N1Cc2[nH]nc(NC(=O)c3ccc(N4CCN(C)CC4)cc3)c2C1` (2.5 µM) was 2.
Still for that read-out and setting: then `CCc1cncnc1N1CCN(Cc2nc3ccc(C(F)(F)F)cc3[nH]2)CC1` (10 µM), with 0; and `COc1cc(-c2cn[nH]c2)ccc1C(=O)Nc1ccc2c(c1)CCNCC2` (10 µM), with 0.
On to `Cn1cc2cc(C(F)(F)c3nnc4ccc(-c5cnn(C6CC6)c5)nn34)c(F)cc2n1` [Bozitinib] (10 µM), for which the “number of time points” value worked out at 0.
The same measure, in the same setting: the value for `O=Nc1c2[nH]c3ccccc3nc-2c2ccccc12` [IQ-1S (free acid)] (2.5 µM) was 0; that for `CCN(CC)c1cc2oc(=O)c(-c3nc4ccccc4o3)cc2cc1C` (2.5 µM) was 0.
On the same count and under the same terms, then `COc1cc(N2CCOCC2)ccc1NC(=O)c1csc(-c2cccnc2)n1` [IRAK inhibitor 6] (10 µM), with 0; and `CNc1nc(Nc2cn(C(C)(C)C#N)nc2C)ncc1C(F)(F)F` (10 µM), with 0.
The same measure, in the same setting: then `COc1nn(C)cc1Nc1nccc(-c2c[nH]c3c(NC(=O)[C@@H](C)N4CCN(C)CC4)cccc23)n1` (10 µM), with 0; and `N#Cc1ccnc(Nc2cc(C3CCN(C4COC4)CC3)cc(N3CCC(F)(F)C3)n2)c1` (2.5 µM), with 3; and `Cc1cccc2c3c(ccc12)C(=O)C1=C(OCC1C)C3=O` (stereo not given) [Dihydroisotanshinone I] (2.5 µM), with 0.
Turning to `CNc1nc(Nc2ccc(C(=O)N3CCOCC3)cc2OC)ncc1Cl` (2.5 µM), the “number of time points” value worked out at 0.
On the same count and under the same terms, the value for `CCN(CC)c1ccc2cc(-c3nc4cc(C)ccc4o3)c(=O)oc2c1` (10 µM) was 0.
Take `COc1ccccc1C(=O)/C=C/c1ccccc1C(=O)O` (10 µM): the “number of time points” value is 0.
The same measure, in the same setting: the value for `CC(=O)N1CCC(c2cc(-c3ccc(NC(=O)c4cccn(-c5ccc(F)cc5)c4=O)cc3F)c3c(N)ncnn23)CC1` (0.5 µM) was 0.
In the case of `O[C@@H]1CO[C@H]2[C@@H]1OC[C@H]2Oc1nc2nc(-c3ccc(-c4ccccc4)cc3)c(Cl)cc2[nH]1` (10 µM), the “number of time points” value was determined as 0.
